Experimental data as given in patent US20080207449A1.
No constants are given. Whether binding was seen depends on the method and setting. Binding seen in cells or lysates may run through a third protein. Some binding calls cover weakened binding; strength is not graded here. Sequences can lack the tags named with a protein.

By UniProt entry, the sequences of proteins in these tests, tags left out. Where a name states a change or a piece, a line headed by the entry shows the natural chain unless it says otherwise. Chains listed by the source or under a name are the forms on record and can include a tag or linker.
HA-tagged wild-type AtE2Fb, in vitro translated (Q9FV71, form named): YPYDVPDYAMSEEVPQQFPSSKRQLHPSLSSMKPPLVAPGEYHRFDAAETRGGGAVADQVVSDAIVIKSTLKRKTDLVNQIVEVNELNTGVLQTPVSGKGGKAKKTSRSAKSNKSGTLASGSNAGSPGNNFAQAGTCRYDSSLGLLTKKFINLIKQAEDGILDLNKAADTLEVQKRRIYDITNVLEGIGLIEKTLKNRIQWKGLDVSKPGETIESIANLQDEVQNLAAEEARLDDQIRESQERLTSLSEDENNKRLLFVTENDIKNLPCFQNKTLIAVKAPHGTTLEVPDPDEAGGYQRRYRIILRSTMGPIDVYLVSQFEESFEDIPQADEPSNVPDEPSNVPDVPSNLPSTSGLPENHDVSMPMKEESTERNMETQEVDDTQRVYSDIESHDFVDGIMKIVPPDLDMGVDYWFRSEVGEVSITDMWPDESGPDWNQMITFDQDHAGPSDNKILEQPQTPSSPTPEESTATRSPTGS

B1: c-myc-tagged AtDPb 182-385, in vitro translated (protein)
chain: EQKLISEEDLEQKLISEEDLGLPRTSLSDIEELKNERLSLRNRIEKKTAYSQELEEQYVGLQNLIQRNEHLYSSGNAPSGGVALPFILVQTRPHATVEVEISEDMQLVHFDFNSTPFELHDDNFVLKTMKFCDQPPQQPNGRNNSQLVCHNFTPENPNKGPSTGPTPQLDMYETHLQSQQHQQHSQLQIIPMPETNNVTSSADTAPVKSPSLPGIMNSSMKPEN
B2: c-myc-tagged AtDPb 1-263, in vitro translated (protein)
chain: EQKLISEEDLEQKLISEEDLMTTTGSNSNHNHHESNNNNNNPSTRSWGTAVSGQSVSTSGSMGSPSSRSEQTITVVTSTSDTTFQRLNNLDIQGDDAGSQGASGVKKKKRGQRAAGPDKTGRGLRQFSMKVCEKVESKGRTTYNEVADELVAEFALPNNDGTSPDQQQYDEKNIRRRVYDALNVLMAMDIISKDKKEIQWRGLPRTSLSDIEELKNERLSLRNRIEKKTAYSQELEEQYVGLQNLIQRNEHLYSSGNAPSGGVALPFILVQTRPHATVEVEI

Molecular target: HA-tagged wild-type AtE2Fb, in vitro translated (Arabidopsis) (UniProt Q9FV71)
Assay: co-immunoprecipitation (anti-c-myc) of in vitro co-translated tagged proteins, SDS-PAGE autoradiography

Binder | binding
B1 | binds
B2 | binds
